Test results taken from the supplement of paper PMC6411743.
± gives the standard deviation of the averaged measurements. This is one part of the list.

How the values were obtained:
Test in all cases: NP40-soluble protein abundance relative to vehicle (solubility fold change) (ratio); higher = more soluble protein in presence of GTP
RNF25 = target: T1, RNF25 (UniProt Q96BH1)
T1 sequence (whole entry): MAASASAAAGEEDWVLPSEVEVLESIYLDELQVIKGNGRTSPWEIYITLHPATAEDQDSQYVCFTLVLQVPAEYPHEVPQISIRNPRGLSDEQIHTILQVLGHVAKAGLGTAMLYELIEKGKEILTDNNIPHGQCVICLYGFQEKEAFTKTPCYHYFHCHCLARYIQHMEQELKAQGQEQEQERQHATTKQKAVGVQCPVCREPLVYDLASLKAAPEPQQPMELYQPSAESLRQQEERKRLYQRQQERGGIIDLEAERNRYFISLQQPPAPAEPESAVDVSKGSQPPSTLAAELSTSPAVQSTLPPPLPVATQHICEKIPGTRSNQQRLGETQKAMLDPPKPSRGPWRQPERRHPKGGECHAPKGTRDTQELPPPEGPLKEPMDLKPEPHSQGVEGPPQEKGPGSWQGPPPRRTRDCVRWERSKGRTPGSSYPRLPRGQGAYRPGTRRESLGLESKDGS
Procedure, shortened: (§1)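 Each value is a fold change relative to the detergent-processed vehicle, calculated per replicate from vsn-normalised intensities. Jurkat crude lysate received eight concentrations (0.1 to 10 mM) for 10 min at room temperature and 3 min at 37 °C, then was solubilised in 0.8% NP40 with benzonase (60 min, 4 °C). The ultracentrifuged supernatant was TMT-labelled and run by LC-MS/MS in three independent experiments.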

SYMPK = target: T2, SYMPK (UniProt Q92797)
T2 sequence (whole entry): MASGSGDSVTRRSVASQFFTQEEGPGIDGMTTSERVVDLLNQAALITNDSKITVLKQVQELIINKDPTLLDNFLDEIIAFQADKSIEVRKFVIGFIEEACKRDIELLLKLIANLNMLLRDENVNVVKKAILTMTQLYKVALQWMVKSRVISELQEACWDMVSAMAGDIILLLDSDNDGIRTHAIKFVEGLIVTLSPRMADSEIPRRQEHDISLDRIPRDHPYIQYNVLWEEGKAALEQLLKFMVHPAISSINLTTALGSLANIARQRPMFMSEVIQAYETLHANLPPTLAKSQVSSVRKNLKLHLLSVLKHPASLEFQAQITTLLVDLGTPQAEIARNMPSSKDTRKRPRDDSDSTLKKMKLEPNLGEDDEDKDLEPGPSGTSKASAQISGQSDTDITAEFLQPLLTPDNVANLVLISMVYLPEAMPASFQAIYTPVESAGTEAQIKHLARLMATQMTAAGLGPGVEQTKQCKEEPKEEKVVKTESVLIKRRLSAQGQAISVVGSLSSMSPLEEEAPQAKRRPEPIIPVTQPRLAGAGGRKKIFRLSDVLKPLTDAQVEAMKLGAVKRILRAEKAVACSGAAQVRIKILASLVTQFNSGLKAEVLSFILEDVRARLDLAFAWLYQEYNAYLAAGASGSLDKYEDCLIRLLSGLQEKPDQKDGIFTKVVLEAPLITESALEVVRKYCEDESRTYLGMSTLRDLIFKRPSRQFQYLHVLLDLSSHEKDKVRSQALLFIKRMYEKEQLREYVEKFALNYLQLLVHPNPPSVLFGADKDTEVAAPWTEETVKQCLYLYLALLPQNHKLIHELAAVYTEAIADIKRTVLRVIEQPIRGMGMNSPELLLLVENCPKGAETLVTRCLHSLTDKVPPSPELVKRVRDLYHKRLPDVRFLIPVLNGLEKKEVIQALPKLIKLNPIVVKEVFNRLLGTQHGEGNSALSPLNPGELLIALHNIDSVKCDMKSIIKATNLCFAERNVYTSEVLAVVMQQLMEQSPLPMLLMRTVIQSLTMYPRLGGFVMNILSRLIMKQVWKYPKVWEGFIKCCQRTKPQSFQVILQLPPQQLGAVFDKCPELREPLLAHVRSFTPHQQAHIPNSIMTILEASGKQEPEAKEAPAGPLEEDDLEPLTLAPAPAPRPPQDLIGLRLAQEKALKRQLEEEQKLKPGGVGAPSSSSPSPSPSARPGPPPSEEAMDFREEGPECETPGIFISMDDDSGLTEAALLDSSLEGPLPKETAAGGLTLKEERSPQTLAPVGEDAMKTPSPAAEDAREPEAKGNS
Procedure, shortened: as §1

UBLCP1 = target: T3, UBLCP1 (UniProt Q8WVY7)
T3 sequence (whole entry): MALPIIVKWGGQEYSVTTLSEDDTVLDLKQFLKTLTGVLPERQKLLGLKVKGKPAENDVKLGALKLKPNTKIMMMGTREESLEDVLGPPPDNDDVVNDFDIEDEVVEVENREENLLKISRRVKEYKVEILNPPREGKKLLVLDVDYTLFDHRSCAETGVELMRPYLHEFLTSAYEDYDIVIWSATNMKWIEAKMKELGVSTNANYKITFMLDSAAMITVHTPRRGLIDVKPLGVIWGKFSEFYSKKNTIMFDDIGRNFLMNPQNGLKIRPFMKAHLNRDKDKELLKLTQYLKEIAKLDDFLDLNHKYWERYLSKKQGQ
Procedure, shortened: as §1

[1] = target: T4, UniProt Q8WVX9 and related entries
T4 sequence (whole entry): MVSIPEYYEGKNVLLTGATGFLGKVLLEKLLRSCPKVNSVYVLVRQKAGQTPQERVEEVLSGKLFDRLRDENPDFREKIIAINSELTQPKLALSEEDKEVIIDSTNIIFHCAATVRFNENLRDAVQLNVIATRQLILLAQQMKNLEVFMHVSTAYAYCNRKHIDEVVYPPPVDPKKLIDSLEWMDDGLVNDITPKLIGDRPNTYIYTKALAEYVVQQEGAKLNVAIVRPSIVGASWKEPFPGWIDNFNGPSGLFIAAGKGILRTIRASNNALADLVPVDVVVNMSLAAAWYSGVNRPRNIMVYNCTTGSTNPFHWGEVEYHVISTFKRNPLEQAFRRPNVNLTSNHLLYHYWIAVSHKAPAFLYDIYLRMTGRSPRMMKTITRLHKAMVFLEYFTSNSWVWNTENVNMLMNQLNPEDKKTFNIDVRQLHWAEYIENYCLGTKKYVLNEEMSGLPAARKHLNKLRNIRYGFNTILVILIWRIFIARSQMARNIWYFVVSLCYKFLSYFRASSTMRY
Procedure, shortened: as §1

UniProt Q8WWW0-2 = target: T5, UniProt Q8WWW0-2
T5 sequence (whole entry): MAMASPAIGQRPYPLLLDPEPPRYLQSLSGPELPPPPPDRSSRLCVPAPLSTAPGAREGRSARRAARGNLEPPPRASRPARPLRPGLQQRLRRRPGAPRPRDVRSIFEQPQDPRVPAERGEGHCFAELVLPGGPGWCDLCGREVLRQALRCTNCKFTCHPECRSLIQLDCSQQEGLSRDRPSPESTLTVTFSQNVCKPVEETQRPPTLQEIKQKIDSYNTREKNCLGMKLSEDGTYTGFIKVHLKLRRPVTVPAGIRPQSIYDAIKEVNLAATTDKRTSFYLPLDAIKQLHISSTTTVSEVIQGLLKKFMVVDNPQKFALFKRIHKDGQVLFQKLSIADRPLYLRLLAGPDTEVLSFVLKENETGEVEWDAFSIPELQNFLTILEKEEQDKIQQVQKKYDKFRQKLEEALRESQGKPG
Procedure, shortened: as §1

[2] = target: T6, UniProt Q8WYQ5 and related entries
T6 sequence (whole entry): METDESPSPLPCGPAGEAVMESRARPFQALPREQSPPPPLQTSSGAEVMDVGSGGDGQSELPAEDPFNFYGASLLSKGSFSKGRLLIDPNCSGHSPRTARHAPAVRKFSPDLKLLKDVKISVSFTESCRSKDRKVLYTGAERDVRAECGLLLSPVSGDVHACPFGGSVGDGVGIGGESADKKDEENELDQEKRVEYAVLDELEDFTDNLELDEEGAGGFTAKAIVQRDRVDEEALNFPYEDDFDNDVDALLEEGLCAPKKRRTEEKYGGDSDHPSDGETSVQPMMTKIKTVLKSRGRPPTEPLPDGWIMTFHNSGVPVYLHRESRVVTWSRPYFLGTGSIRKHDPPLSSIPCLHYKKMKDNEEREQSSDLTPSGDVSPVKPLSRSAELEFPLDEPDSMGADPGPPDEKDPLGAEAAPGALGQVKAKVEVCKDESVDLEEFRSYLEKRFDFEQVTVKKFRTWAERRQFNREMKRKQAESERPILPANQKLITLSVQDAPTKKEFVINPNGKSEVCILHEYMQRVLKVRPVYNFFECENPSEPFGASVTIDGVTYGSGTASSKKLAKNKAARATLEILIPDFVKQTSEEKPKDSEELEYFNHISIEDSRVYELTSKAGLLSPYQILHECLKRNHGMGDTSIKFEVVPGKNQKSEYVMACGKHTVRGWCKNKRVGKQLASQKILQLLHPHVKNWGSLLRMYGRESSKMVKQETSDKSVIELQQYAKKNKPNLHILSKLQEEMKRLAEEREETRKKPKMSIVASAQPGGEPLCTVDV
Procedure, shortened: as §1

Compound: Nc1nc2c(ncn2[C@@H]2O[C@H](COP(=O)(O)OP(=O)(O)OP(=O)(O)O)[C@@H](O)[C@H]2O)c(=O)[nH]1 [guanosine triphosphate]
- NP40-soluble protein abundance (RNF25; concentration: 1mM): 1.03 ± 0.045
- NP40-soluble protein abundance (RNF25; concentration: 2mM): 1.01 ± 0.037
- NP40-soluble protein abundance (RNF25; concentration: 4mM): 1.07 ± 0.11
- NP40-soluble protein abundance (RNF25; concentration: 6mM): 0.985 ± 0.073
- NP40-soluble protein abundance (RNF25; concentration: 8mM): 1.06 ± 0.037
- NP40-soluble protein abundance (RNF25; concentration: 10mM): 0.988 ± 0.014
- NP40-soluble protein abundance (SYMPK; concentration: 0.1mM): 1.04 ± 0.029
- NP40-soluble protein abundance (SYMPK; concentration: 0.5mM): 1.02 ± 0.037
- NP40-soluble protein abundance (SYMPK; concentration: 1mM): 1.04 ± 0.034
- NP40-soluble protein abundance (SYMPK; concentration: 2mM): 1.02 ± 0.03
- NP40-soluble protein abundance (SYMPK; concentration: 4mM): 1.04 ± 0.024
- NP40-soluble protein abundance (SYMPK; concentration: 6mM): 1.03 ± 0.026
- NP40-soluble protein abundance (SYMPK; concentration: 8mM): 1.04 ± 0.038
- NP40-soluble protein abundance (SYMPK; concentration: 10mM): 1.02 ± 0.019
- NP40-soluble protein abundance (UBLCP1; concentration: 0.1mM): 0.976 ± 0.018
- NP40-soluble protein abundance (UBLCP1; concentration: 0.5mM): 0.989 ± 0.022
- NP40-soluble protein abundance (UBLCP1; concentration: 1mM): 0.914 ± 0.015
- NP40-soluble protein abundance (UBLCP1; concentration: 2mM): 0.853 ± 0.02
- NP40-soluble protein abundance (UBLCP1; concentration: 4mM): 0.818 ± 0.044
- NP40-soluble protein abundance (UBLCP1; concentration: 6mM): 0.863 ± 0.026
- NP40-soluble protein abundance (UBLCP1; concentration: 8mM): 0.832 ± 0.065
- NP40-soluble protein abundance (UBLCP1; concentration: 10mM): 0.803 ± 0.063
- NP40-soluble protein abundance ([1]; concentration: 0.1mM): 1.11 ± 0.074
- NP40-soluble protein abundance ([1]; concentration: 0.5mM): 1.18 ± 0.14
- NP40-soluble protein abundance ([1]; concentration: 1mM): 0.998 ± 0.079
- NP40-soluble protein abundance ([1]; concentration: 2mM): 1.05 ± 0.18
- NP40-soluble protein abundance ([1]; concentration: 4mM): 1.05 ± 0.11
- NP40-soluble protein abundance ([1]; concentration: 6mM): 1.04 ± 0.14
- NP40-soluble protein abundance ([1]; concentration: 8mM): 1.01 ± 0.037
- NP40-soluble protein abundance ([1]; concentration: 10mM): 1 ± 0.1
- NP40-soluble protein abundance (UniProt Q8WWW0-2; concentration: 0.1mM): 0.947 ± 0.062
- NP40-soluble protein abundance (UniProt Q8WWW0-2; concentration: 0.5mM): 0.923 ± 0.046
- NP40-soluble protein abundance (UniProt Q8WWW0-2; concentration: 1mM): 0.932 ± 0.027
- NP40-soluble protein abundance (UniProt Q8WWW0-2; concentration: 2mM): 0.933 ± 0.065
- NP40-soluble protein abundance (UniProt Q8WWW0-2; concentration: 4mM): 0.909 ± 0.047
- NP40-soluble protein abundance (UniProt Q8WWW0-2; concentration: 6mM): 0.914 ± 0.062
- NP40-soluble protein abundance (UniProt Q8WWW0-2; concentration: 8mM): 0.892 ± 0.026
- NP40-soluble protein abundance (UniProt Q8WWW0-2; concentration: 10mM): 0.939 ± 0.037
- NP40-soluble protein abundance ([2]; concentration: 0.1mM): 1.13 ± 0.1
- NP40-soluble protein abundance ([2]; concentration: 0.5mM): 1.09 ± 0.05
- NP40-soluble protein abundance ([2]; concentration: 1mM): 1.16 ± 0.049
- NP40-soluble protein abundance ([2]; concentration: 2mM): 1.17 ± 0.045
